# Measurements published in the supplement of paper PMC6411743.
# The chains behind the UniProt entries cited, without tags or fusion partners. Where a name states a change or a piece, a line headed by the entry shows the natural chain unless it says otherwise.
# UniProt Q6P1L5: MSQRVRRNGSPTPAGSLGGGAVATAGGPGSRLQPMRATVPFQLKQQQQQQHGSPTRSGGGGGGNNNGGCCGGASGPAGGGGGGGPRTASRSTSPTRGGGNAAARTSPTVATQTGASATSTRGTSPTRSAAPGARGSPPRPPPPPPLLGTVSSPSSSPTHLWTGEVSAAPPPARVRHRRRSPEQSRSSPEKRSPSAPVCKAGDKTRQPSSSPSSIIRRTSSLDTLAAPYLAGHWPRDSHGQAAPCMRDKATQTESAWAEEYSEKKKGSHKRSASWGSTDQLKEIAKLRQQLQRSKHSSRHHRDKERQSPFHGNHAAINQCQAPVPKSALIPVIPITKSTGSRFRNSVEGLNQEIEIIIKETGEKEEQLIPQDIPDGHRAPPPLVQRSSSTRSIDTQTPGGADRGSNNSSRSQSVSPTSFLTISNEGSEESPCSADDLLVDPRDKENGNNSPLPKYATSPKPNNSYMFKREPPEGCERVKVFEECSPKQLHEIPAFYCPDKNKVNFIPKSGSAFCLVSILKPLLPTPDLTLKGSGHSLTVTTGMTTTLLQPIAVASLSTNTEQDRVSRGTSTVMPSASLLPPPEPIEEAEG
# UniProt Q5W0V3: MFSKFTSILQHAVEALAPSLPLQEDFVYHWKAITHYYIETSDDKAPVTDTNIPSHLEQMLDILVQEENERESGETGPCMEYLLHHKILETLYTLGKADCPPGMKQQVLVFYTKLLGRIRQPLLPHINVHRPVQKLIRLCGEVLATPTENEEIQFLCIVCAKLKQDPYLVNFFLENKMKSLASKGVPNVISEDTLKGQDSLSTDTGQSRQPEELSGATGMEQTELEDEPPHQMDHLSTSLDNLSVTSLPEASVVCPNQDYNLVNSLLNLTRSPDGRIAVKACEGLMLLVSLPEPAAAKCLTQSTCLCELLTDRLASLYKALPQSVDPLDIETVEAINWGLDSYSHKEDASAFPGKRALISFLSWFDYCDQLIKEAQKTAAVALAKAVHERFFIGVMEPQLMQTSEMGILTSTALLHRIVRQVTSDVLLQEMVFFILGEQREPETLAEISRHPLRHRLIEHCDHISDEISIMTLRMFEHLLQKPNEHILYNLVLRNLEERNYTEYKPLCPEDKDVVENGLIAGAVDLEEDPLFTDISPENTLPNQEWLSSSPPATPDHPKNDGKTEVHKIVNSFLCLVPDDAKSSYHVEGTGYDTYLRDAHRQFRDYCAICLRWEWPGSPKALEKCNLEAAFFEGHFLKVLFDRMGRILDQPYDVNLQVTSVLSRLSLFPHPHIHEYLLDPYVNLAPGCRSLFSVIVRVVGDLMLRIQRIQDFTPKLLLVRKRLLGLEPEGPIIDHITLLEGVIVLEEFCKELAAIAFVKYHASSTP
# UniProt Q70UQ0: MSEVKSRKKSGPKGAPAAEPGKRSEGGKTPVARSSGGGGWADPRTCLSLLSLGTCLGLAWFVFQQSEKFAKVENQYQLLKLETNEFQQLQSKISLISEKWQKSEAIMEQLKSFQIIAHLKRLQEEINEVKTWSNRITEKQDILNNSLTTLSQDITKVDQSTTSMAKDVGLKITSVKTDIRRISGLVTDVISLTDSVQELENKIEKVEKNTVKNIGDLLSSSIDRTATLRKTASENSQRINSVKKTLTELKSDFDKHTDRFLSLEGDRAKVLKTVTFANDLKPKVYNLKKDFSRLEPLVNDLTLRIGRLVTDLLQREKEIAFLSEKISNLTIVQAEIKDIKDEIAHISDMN
# UniProt Q7Z4Q2: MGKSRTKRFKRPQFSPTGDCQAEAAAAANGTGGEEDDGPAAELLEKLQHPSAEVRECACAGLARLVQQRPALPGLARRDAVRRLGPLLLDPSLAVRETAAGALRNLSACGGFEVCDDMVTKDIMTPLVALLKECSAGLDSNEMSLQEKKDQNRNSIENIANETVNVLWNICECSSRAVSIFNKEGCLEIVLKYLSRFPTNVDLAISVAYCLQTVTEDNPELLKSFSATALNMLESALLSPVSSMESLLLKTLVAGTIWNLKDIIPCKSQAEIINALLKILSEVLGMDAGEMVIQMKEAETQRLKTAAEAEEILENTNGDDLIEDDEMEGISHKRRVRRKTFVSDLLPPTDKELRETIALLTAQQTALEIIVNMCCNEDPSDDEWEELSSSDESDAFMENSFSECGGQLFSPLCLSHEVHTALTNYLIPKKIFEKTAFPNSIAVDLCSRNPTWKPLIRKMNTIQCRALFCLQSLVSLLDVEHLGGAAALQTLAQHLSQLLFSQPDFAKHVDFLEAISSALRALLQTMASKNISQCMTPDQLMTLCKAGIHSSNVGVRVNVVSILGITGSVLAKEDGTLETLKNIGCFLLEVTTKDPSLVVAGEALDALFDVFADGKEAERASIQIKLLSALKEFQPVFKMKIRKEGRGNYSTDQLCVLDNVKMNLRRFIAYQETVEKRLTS
# UniProt Q7Z3T8: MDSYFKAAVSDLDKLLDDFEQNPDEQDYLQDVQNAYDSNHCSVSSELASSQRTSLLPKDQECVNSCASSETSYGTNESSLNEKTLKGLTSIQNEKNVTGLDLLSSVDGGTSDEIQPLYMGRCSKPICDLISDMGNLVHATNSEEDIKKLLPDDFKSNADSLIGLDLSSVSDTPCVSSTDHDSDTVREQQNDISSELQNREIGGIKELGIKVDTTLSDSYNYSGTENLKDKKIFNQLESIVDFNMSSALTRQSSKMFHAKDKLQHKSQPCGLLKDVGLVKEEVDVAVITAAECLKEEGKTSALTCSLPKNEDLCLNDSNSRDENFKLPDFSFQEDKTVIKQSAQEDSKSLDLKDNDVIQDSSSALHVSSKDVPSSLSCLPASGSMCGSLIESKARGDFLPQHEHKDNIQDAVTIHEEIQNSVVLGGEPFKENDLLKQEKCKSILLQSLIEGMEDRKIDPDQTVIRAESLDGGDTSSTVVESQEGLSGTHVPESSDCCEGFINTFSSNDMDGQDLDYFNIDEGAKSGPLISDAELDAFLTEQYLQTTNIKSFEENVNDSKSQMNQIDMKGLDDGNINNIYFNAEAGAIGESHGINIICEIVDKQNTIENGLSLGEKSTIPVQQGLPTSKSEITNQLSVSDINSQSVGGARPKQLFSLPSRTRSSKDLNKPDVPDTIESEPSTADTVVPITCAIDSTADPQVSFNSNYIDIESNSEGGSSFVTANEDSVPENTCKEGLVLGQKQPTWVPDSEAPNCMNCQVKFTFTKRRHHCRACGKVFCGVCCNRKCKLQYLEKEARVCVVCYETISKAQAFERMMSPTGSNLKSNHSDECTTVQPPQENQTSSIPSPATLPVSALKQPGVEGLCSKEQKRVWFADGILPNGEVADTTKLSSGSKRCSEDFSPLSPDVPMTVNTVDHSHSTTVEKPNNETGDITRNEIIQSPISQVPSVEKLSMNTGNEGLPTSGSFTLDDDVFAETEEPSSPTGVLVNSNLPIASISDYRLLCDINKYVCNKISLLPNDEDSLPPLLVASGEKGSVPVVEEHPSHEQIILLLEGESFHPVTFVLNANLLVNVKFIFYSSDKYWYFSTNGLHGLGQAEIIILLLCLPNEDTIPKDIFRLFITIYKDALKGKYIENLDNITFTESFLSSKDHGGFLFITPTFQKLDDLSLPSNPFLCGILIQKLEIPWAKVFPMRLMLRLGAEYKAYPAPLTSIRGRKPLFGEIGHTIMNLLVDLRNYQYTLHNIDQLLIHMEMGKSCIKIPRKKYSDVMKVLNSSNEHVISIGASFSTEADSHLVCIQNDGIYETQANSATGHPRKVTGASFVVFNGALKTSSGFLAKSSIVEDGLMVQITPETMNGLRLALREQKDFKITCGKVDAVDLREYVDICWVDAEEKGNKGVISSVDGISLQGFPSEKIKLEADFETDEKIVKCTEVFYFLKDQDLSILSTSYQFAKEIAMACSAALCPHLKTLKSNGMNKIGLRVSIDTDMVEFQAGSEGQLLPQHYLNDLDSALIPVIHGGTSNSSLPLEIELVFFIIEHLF
# UniProt Q7Z3E2: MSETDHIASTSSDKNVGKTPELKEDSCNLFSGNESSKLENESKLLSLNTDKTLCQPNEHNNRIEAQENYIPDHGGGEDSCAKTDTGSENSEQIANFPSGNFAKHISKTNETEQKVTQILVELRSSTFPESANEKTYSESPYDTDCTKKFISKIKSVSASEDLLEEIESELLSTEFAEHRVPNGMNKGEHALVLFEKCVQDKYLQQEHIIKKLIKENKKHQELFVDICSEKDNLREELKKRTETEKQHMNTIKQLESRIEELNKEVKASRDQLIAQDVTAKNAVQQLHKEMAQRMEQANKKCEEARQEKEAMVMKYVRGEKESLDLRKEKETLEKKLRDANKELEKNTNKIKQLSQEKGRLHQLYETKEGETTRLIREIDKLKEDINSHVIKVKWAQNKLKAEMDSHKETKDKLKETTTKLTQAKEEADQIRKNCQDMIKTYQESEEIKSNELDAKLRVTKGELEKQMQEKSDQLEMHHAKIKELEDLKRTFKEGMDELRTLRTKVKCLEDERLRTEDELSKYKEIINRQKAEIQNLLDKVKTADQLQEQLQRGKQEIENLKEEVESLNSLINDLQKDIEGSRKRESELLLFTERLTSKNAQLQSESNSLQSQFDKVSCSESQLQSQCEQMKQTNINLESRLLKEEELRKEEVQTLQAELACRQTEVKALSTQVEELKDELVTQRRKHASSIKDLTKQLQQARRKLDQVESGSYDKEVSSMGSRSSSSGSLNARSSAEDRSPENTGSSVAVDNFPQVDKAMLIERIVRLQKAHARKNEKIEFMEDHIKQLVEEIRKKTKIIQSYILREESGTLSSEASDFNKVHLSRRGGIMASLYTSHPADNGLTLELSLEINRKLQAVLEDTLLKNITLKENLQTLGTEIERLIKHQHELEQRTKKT
# UniProt Q5VTB9: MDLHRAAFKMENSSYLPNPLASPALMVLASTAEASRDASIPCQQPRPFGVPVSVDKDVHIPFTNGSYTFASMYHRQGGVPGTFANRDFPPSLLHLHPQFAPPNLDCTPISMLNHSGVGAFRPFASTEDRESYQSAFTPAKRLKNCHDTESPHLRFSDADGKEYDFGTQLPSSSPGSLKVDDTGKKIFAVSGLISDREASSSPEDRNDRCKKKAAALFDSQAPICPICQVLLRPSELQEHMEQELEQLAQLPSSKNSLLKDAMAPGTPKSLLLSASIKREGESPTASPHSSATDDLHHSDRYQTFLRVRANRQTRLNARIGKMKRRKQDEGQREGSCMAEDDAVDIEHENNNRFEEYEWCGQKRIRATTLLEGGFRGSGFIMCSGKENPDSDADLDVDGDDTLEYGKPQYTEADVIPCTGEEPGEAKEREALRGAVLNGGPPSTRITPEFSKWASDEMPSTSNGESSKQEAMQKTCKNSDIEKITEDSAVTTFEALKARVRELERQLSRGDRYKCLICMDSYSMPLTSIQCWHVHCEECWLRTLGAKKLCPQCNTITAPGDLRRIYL
# UniProt Q6NUQ1: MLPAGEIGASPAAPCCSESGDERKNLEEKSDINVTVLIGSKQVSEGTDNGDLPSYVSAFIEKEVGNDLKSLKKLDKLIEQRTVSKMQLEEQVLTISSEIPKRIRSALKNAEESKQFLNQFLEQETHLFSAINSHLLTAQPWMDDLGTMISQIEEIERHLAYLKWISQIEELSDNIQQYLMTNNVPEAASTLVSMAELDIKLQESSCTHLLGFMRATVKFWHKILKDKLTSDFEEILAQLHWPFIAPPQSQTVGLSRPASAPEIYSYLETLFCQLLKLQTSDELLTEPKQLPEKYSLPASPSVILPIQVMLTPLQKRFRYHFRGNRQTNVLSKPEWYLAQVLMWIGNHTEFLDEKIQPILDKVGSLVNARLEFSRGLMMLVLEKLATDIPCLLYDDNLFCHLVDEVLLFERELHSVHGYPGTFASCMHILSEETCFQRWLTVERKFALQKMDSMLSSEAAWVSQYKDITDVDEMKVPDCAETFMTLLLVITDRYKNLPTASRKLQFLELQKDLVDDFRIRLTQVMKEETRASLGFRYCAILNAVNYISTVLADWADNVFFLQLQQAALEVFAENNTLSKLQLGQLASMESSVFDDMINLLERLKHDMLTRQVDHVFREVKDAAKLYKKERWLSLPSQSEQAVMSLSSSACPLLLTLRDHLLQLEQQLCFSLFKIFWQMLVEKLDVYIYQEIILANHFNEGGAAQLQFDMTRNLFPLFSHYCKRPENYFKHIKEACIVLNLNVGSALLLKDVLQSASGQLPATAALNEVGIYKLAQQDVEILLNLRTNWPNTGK
# UniProt Q6IAA8, whole entry: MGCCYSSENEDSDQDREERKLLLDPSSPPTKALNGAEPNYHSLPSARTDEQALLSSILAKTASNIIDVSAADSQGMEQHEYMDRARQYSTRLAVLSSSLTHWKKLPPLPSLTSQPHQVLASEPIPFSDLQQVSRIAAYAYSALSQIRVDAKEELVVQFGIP
# UniProt Q6QNY1: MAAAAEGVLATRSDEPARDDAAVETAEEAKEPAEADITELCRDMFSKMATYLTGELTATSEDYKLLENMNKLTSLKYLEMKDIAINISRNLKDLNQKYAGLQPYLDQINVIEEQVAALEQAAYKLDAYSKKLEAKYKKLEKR
# ± gives the standard deviation of the averaged measurements. The entries are a selection whose mix differs from that of the whole data set.
# Compound: Nc1ncnc2c1ncn2[C@@H]1O[C@H](COP(=O)(O)OP(=O)(O)NP(=O)(O)O)[C@@H](O)[C@H]1O [adenylyl imidodiphosphate]
# Assay: NP40-soluble protein abundance relative to vehicle (solubility fold change) (ratio); higher = more soluble protein in presence of AMP-PNP
# Outline: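 Crude Jurkat lysate, prepared by Dounce homogenisation, was exposed to eight concentrations from 0.1 to 10 mM for 10 min at room temperature and then 3 min at 37 °C. Solubilisation used 0.8% NP40 with benzonase for 60 min at 4 °C, followed by ultracentrifugation and TMT labelling of the supernatant for LC-MS/MS. After vsn normalisation of intensities, each value is the fold change against the detergent-processed vehicle within each replicate, across three independent experiments.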
Target,NP40-soluble protein abundance (concentration: 1mM),NP40-soluble protein abundance (concentration: 2mM),NP40-soluble protein abundance (concentration: 4mM),NP40-soluble protein abundance (concentration: 6mM),NP40-soluble protein abundance (concentration: 8mM),NP40-soluble protein abundance (concentration: 10mM)
CEP350 (UniProt Q5VT06),0.978 ± 0.06,0.989 ± 0.046,1 ± 0.07,0.975 ± 0.024,0.951 ± 0.031,0.967 ± 0.034
DUS1L (UniProt Q6P1R4),1.03 ± 0.043,1.05 ± 0.057,1.01 ± 0.053,1.03 ± 0.061,1 ± 0.022,1.02 ± 0.058
FAM117B (UniProt Q6P1L5),0.99 ± 0.022,1.07 ± 0.04,1.01 ± 0.025,1.005 ± 0.01,0.9688 ± 0.0059,1.01 ± 0.022
FAM160B1 (UniProt Q5W0V3),1.06 ± 0.078,0.992 ± 0.087,1.02 ± 0.073,0.9309 ± 0.004,0.957 ± 0.038,0.939 ± 0.082
UniProt Q70UQ0 and related entries,1.01 ± 0.025,1.03 ± 0.036,0.991 ± 0.056,0.994 ± 0.06,0.982 ± 0.017,0.936 ± 0.031
HEATR3 (UniProt Q7Z4Q2),1.03 ± 0.02,1.04 ± 0.019,1.05 ± 0.023,1.036 ± 0.0075,1.05 ± 0.017,1.06 ± 0.022
DCAF15 (UniProt Q66K64),1.05 ± 0.02,1.07 ± 0.023,1.04 ± 0.021,1.02 ± 0.041,1.02 ± 0.044,1.04 ± 0.021
ZFYVE16 (UniProt Q7Z3T8),1.02 ± 0.015,1.07 ± 0.058,1.02 ± 0.017,0.991 ± 0.024,0.972 ± 0.018,1.01 ± 0.052
UniProt Q7Z3E2,0.945 ± 0.015,0.996 ± 0.038,0.974 ± 0.012,0.964 ± 0.014,0.9648 ± 0.0041,0.9661 ± 0.0039
UniProt Q5VTB9 and related entries,1.03 ± 0.018,1.03 ± 0.02,1.04 ± 0.037,1.04 ± 0.011,0.995 ± 0.028,1.047 ± 0.0066
RINT1 (UniProt Q6NUQ1),0.997 ± 0.039,0.988 ± 0.036,0.966 ± 0.031,0.963 ± 0.032,0.919 ± 0.012,0.937 ± 0.05
UniProt Q6Y7W6 and related entries,1.02 ± 0.045,1.09 ± 0.057,1.06 ± 0.039,1.07 ± 0.058,1.05 ± 0.043,1.11 ± 0.045
UniProt Q6IAA8 and related entries,1.02 ± 0.025,1.04 ± 0.028,1.04 ± 0.047,0.992 ± 0.051,0.975 ± 0.017,0.966 ± 0.035
UniProt Q7L9L4,1.02 ± 0.043,0.899 ± 0.028,1.02 ± 0.061,0.997 ± 0.092,1.05 ± 0.13,0.992 ± 0.08
UniProt Q6QNY1 and related entries,0.993 ± 0.062,0.982 ± 0.083,0.981 ± 0.042,0.955 ± 0.052,0.958 ± 0.047,0.955 ± 0.041
ATAD2 (UniProt Q6PL18),1.01 ± 0.013,0.992 ± 0.012,1 ± 0.012,1.01 ± 0.035,1.038 ± 0.0078,1.1 ± 0.045
CHMP1B (UniProt Q7LBR1),0.961 ± 0.034,1.11 ± 0.23,1.03 ± 0.091,1.13 ± 0.17,1.11 ± 0.13,1.17 ± 0.18

# Another view of some results above.
Target	NP40-soluble protein abundance (concentration: 1mM)	NP40-soluble protein abundance (concentration: 2mM)	NP40-soluble protein abundance (concentration: 4mM)	NP40-soluble protein abundance (concentration: 6mM)	NP40-soluble protein abundance (concentration: 8mM)	NP40-soluble protein abundance (concentration: 10mM)
FAM160B1 (UniProt Q5W0V3)	1.06 ± 0.078	0.992 ± 0.087	1.02 ± 0.073	0.9309 ± 0.004	0.957 ± 0.038	0.939 ± 0.082
UniProt Q5VTB9 and related entries	1.03 ± 0.018	1.03 ± 0.02	1.04 ± 0.037	1.04 ± 0.011	0.995 ± 0.028	1.047 ± 0.0066
